Results of single-concentration screens

Sequences of proteins named here, by UniProt entry; tags and fusion partners are left off. Residues count along the entry.
UniProt A4I591, 1-473: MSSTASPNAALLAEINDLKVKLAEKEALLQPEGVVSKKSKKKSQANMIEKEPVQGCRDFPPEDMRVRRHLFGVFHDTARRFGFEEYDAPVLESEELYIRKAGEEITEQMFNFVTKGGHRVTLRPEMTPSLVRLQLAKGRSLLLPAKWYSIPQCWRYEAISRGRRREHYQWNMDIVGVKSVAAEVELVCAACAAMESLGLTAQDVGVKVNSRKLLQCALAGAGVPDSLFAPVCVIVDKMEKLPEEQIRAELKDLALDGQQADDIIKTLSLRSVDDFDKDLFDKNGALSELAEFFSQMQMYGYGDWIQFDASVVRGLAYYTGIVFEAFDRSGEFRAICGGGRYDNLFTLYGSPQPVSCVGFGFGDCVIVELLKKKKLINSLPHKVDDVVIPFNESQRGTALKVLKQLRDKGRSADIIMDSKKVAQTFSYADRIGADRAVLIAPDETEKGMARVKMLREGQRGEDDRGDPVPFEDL
UniProt P9WFT3, whole entry: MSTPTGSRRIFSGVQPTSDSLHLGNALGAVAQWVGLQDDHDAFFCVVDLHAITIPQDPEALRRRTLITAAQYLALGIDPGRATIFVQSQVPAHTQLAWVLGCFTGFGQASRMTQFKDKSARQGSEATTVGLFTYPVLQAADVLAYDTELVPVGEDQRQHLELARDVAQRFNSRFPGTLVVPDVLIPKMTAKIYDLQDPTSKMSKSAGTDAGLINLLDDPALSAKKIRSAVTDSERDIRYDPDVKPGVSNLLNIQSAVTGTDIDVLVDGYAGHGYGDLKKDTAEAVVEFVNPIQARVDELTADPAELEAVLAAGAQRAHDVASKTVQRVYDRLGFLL
UniProt P9WNZ1, whole entry: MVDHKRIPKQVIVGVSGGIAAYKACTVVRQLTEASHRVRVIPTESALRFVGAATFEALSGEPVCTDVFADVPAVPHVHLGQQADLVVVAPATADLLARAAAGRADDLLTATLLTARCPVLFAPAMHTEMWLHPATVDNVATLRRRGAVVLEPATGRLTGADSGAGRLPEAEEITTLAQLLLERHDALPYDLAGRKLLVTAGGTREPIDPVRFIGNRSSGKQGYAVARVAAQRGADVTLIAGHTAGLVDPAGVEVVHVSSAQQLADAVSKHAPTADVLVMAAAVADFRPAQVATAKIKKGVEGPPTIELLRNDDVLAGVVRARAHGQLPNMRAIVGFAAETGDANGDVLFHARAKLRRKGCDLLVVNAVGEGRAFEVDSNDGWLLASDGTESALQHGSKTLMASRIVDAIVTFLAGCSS

A: 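Histidine-tRNA ligase, Leishmania infantum (UniProt A4I591). Enzyme assay of histidyl-tRNA synthetase; the read-out is not stated. Concentration: 30 µM. Direction is inferred from retests: higher values go with stronger inhibition. The assay is labelled LdHisRS but filed under L. infantum. Of about 69,000 compounds tested this way, about 410 (0.6%) reached 50% or more in at least one test.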
B: 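Tryptophan-tRNA ligase, Mycobacterium tuberculosis (UniProt P9WFT3). Enzyme assay of tryptophanyl-tRNA synthetase; the read-out is not stated. Concentration: 10 µM. Higher most likely means stronger inhibition; the record gives no direction and few retests gave an IC50. Of about 65,000 compounds tested this way, about 64 (0.098%) reached 50% or more in at least one test.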
C: 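Assay of Toxoplasma gondii numbers, read through their beta-galactosidase reporter with a colour substrate. Compounds at 10 µM. The record gives no direction; the compounds picked for IC50 retests had high values, so higher reads as fewer parasites. About 67,000 compounds were tested under these conditions; 0.38% (about 260) showed 50% or more at least once.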
D: 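Coenzyme A biosynthesis protein CoaBC, Mycobacterium tuberculosis (UniProt P9WNZ1). Enzyme assay of CoaBC with a phosphate dye (Biomol Green) read at 650 nm. Concentration: 30 µM. Direction is inferred from only a few compounds that gave an IC50; most scored high, so higher reads as stronger inhibition. Most strong results did not repeat in a second test. Of about 67,000 compounds tested this way, about 40 (0.06%) reached 50% or more in at least one test.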

Results are given as percent effect.
The record does not define 0% and 100%; most values in the screen are far below 50% and negative numbers occur (in some assays of this library far below -100).
This is an unselected part of the compounds tested.

* CCC1=N[C@@]2(CC[C@@H]3CN(C(=O)Nc4ccc(F)cc4)C[C@@H]32)C(=O)N1 : A: 23.08%; B: -3.189%; D: -2.692%
* CCc1noc(CN(CC)Cc2cc3ccc(C)cc3[nH]c2=O)n1 : A: 18.03%; B: -2.415%; C: 6.922%; D: -4.978%
* O=c1c2ccccc2cnn1Cc1cncn1C1CC1 : A: 9.79%; B: -5.325%; C: -25.61%; D: 2.716%
* COc1ccc(Nc2ncccc2C#N)cc1N1CCCC1=O : A: 11.11%; B: 18.37%; C: 1.003%; D: 7.78%
* Cc1nc(C2CCCN2C(=O)CCc2ccc(F)cc2)ncc1C(N)=O (configuration not stated) : A: 8%; C: 4.679%; D: 1.611%
* O=C(NCCOc1ccc(Cl)cn1)Nc1nccs1 : A: 18.57%; B: 12.27%; C: 3.371%; D: 11.68%
* [H][C@@]12CNC(=O)N1CCN(Cc1ccccn1)C2 : C: 5.665%
* CCN1CCC12CCN(C(=O)c1ccsc1)C2.O=C(O)C(F)(F)F (configuration not stated) : C: 0.7979%
* c1ccc(Cc2nc(C3CC3)nn2-c2ccc3c(c2)OCCO3)nc1 : A: -29.17%; B: -12.33%; C: 4.463%; D: -0.4808%
* Cc1nn(C)c(C)c1NC(=O)CCn1ncc2ccc(Cl)cc21 : A: 12.07%; B: -0.6477%; C: 17.58%; D: 3.926%
* Cc1c(F)cc(C(=O)NCC(F)(F)F)cc1NCC(=O)N(C)C : A: 34.38%; B: 10.12%; C: -7.664%; D: 17.57%
* CC(C)CC(=O)N1Cc2ccccc2CC1C(=O)Nc1nccs1 (configuration not stated) : A: 22.67%; B: 5.094%; C: -10.13%; D: 5.368%
* CN1CCCC1c1cccc(Cc2ccccc2F)n1 (configuration not stated) : A: 16.67%; B: 1.254%; C: -0.8328%; D: 2.778%
* Cc1cccc2c1ccn2CC(=O)O : A: 4.425%; B: -6.636%; C: 9.341%; D: -4.673%
* CCOCCC(=O)N1C[C@H]2CC[C@@H]1CN(c1ncccn1)C2 : A: 3.125%; B: -0.08084%; D: 0.5141%
* [H][C@@]12OCCN(C(=O)c3ccc(C)o3)[C@@]1([H])CC[C@H]2OCC1CCOCC1 : C: 2.128%

Repeated from the top, 2 entries:

Result for CCC1=N[C@@]2(CC[C@@H]3CN(C(=O)Nc4ccc(F)cc4)C[C@@H]32)C(=O)N1 was A: 23.08%; B: -3.189%; D: -2.692%.
Result for CCc1noc(CN(CC)Cc2cc3ccc(C)cc3[nH]c2=O)n1 was A: 18.03%; B: -2.415%; C: 6.922%; D: -4.978%.

From ChEMBL document CHEMBL3988442, “University of Dundee, Small-Polar-MMV Screening Library” (2021).